Out of some 400,000 compounds screened, about 13,000 (3.2%) were called active. The shares of active, inactive and inconclusive entries below differ from those in the screen. Calls come from the whole dose curve; as a rule, active = well fitted cell-killing curve with a large enough effect; inconclusive = small, poorly fitted or top-dose-only effect, or effect the other way; inactive = flat fitted curve, though single readings scatter. Potencies of inconclusive entries are doubtful fits and often do not repeat.
experiment: qHTS assay for MDR1-selective chemotherapeutics: Primary screen using the drug-selected MDR subline cells KB-V1; details: KB-V1 MDR cells viability, CellTiter-Glo, 72 h; activity change, negative = cytotoxicity: at 46.1 µM (top of the series); note: nearly all actives have a fitted effect of over 60% in size
Summary of the method: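 Drug-selected KB-V1 cells, grown in DMEM lacking phenol red with 10% FBS, receive compound titrations; after three days at 37 degrees C, surviving cell ATP is quantified by CellTiter-Glo luminescence and responses normalized and curve-fitted.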
% is set by controls: 0 for no effect and ±100 for the full control effect; potency is the fitted concentration of half-maximal effect.

| SMILES | Potency | activity change, negative = cytotoxicity |
| --- | --- | --- |
| CN(C)c1nc(NCc2ccccc2)nc(SCC(=O)Nc2ccc(Cl)c(Cl)c2)n1 | active: 7.31 µM | – |
| CCOC(=O)N1CCC(NC(=O)c2ccc(CS(=O)c3cccc(Cl)c3)o2)CC1 (stereo unspecified) | inactive | – |
| CN(CCN1CCOCC1)C(=O)CC1C(=O)NCCN1Cc1ccccc1C(F)(F)F (stereo unspecified) | – | inconclusive: 35.9% |
| COc1ccc(CNC(=O)C2CCCN(S(=O)(=O)c3ccc(Br)s3)C2)cc1 (stereo unspecified) | inconclusive: 8.2 µM [cytotoxic, partial curve] | – |
| CN(Cc1ccccc1)c1nc(CN2CCOCC2)nc2scc(-c3ccccc3)c12 | inconclusive: 25.9 µM [cytotoxic, single point] | – |
| N#C/C(=C(/O)CN1CCCC1)c1nc(-c2ccccc2)cs1 | inactive | – |
| CC(CNC(=O)C1CCN(C(=O)N2CCOc3ccc(Cl)cc32)CC1)c1ccccc1 (stereo unspecified) | inactive | – |
| COc1ccc2[nH]c3c(c2c1)CCC/C3=N\N | inconclusive: 23.1 µM [cytotoxic, single point] | – |
| NC(=O)c1sc2nc3c(c(-c4ccco4)c2c1N)CCC3 | inconclusive: 20.6 µM [cytotoxic, partial curve, poor fit] | – |
| NS(=O)(=O)c1ccc(NC(=S)NCc2cccc(Cl)c2)cc1 | inconclusive: 16.4 µM [cytotoxic, single point] | – |
| COc1cc(C(C(=O)NCc2ccccc2)N(Cc2ccco2)C(=O)c2cnccn2)cc(OC)c1OC (stereo unspecified) | inconclusive: 29.1 µM [rising, partial curve, poor fit] | – |
| COc1ccc(CCN2C(=O)c3ccccc3C2c2nnnn2Cc2ccccc2)cc1OC (stereo unspecified) | inconclusive: 7.31 µM [cytotoxic, partial curve] | – |
| BrC(=C\c1ccccc1)/C=N/Nc1nc2ccccc2[nH]1 | inconclusive: 29.1 µM [cytotoxic, single point] | – |
| COc1ccc(C(=O)c2oc3nc(C)cc(C)c3c2N)cc1 | inconclusive: 14.6 µM [cytotoxic, partial curve, poor fit] | – |
| CCN(CC)C(=O)/C(=C\c1ccc(Br)cc1)NC(=O)c1ccccc1OC | inconclusive: 20.6 µM [cytotoxic, partial curve] | – |
| CC(=O)c1cccc(NC(=O)C(NC(C)C)c2ccccc2)c1 (stereo unspecified) | inconclusive: 2.91 µM [cytotoxic, partial curve, poor fit] | – |
| COc1cccc(-c2oc3c(c2C(=O)OCCN2CCCCC2)C(O)CCC3)c1 (stereo unspecified) | inconclusive: 10.3 µM [cytotoxic, partial curve] | – |
| O=C(NCc1ccc2c(c1)OCO2)c1cc(-c2ccncc2)nc2ccccc12 | inconclusive: 20.6 µM [cytotoxic, single point] | – |
| CCOc1ccc(NC(=O)CN2C(=O)CC(C)Sc3ccccc32)cc1 (stereo unspecified) | inactive | – |
| CCCCCOC(=O)c1[nH]c2c(c1C)C(=O)C(C(=O)OC)C(C)C2 (stereo unspecified) | active: 18.4 µM | – |
| COc1ccc(-c2cn[nH]c2-c2ccc(OCc3ccccc3)cc2O)cc1OC | inconclusive: 8.2 µM [cytotoxic, partial curve, poor fit] | – |
| Cc1ccc(CNC(=O)c2sc3nc4c(c(C(F)(F)F)c3c2N)CCC4)cc1 | inconclusive: 14.6 µM [cytotoxic, partial curve] | – |
| CCCCC[C@@H](C)N1C[C@H](COCc2ccccc2)Oc2cc(N3CC[C@@H](N(C)C)C3)ccc2S1(=O)=O | active: 16.4 µM | – |
| O=C(CSc1nc2ccc(Nc3nc(N4CCOCC4)nc(N4CCOCC4)n3)cc2s1)Nc1ccccc1F | active: 2.59 µM | – |

| SMILES | Potency | activity change, negative = cytotoxicity |
| --- | --- | --- |
| CCn1ncc(S(=O)(=O)NCc2ccco2)c1C | inactive | – |
| C(=C1c2ccccc2Oc2ccccc21)c1ccccc1 | inconclusive: 7.31 µM [rising, partial curve, poor fit] | – |
| CN(c1ccccc1)c1ncccn1 | inactive | – |
| CCOC(=O)c1cnc(-n2cc(C)cn2)nc1NCc1ccc2c(c1)OCO2 | active: 4.11 µM | – |
| COc1ccc(NS(=O)(=O)c2cccc(NC(=O)c3ccc(Cl)nc3)c2)cc1 | active: 2.91 µM | – |
| COc1cc(C(C)=O)ccc1OCCCOc1cccc2cccnc12 | inconclusive: 16.4 µM [cytotoxic, partial curve, poor fit] | – |
| COc1ccc(CNC(=O)CSc2nc3cccnc3s2)cc1 | inactive | – |
| Cc1cccc(C)c1-n1nnnc1-c1nc2cc3ccccc3cc2[nH]c1=O | active: 6.51 µM | – |
| COc1ccc(OC)c(-c2nnc3n2N=C(c2ccc(OC(F)F)c(OCC4CC4)c2)CS3)c1 | inconclusive: 29.1 µM [cytotoxic, single point] | – |
| CC(=O)Nc1ccc(SC[C@H](C)CN2CC[C@H](C(C)(C)C)CCC2=O)cc1 | inconclusive: 20.6 µM [cytotoxic, single point] | – |
| O=C(CSc1nc(=O)n2ccccc2n1)NCc1ccc(F)cc1 | inconclusive: 29.1 µM [rising, single point] | – |
| COc1ccc(CCn2c3c(c(=O)[nH]c2=O)C(NC(=O)c2ccccc2F)(C(F)(F)F)C(=O)N3)cc1OC (stereo unspecified) | inactive | – |
| COc1ccc2nc(Nc3nc(CSc4nc5ccccc5[nH]4)cc(=O)[nH]3)nc(C)c2c1 | inconclusive: 18.4 µM [cytotoxic, single point] | – |
| O=C(Nc1nc(-c2ccccn2)cs1)C1COc2ccccc2O1 (stereo unspecified) | inactive | – |
| O=C(C1CCCN(S(=O)(=O)c2ccc(F)cc2)C1)N(Cc1cccs1)C1CC1 (stereo unspecified) | inactive | – |
| CC(C)Cn1cc(C(=O)NCc2cccs2)c2c3ccccc3n(C)c2c1=O | inconclusive: 5.8 µM [cytotoxic, full curve] | – |
| CCCN1C2=NS(=O)(=O)CCN2c2ccccc21 | inconclusive: 18.4 µM [rising, partial curve] | – |
| COc1ccc(OCCSc2nnc(CC(=O)Nc3cccc(Cl)c3Cl)n2C)cc1 | inconclusive: 23.1 µM [cytotoxic, partial curve, poor fit] | – |
| CCOC(=O)c1cn(-c2ccccc2)nc1-c1ccncc1 | active: 18.4 µM | – |
| c1ccc2c(c1)Cc1cc3ccccc3nc1-2 | inactive | – |
| COc1ccc(S(=O)(=O)N2CCCCC2c2cc(C(=O)N3CCOCC3)no2)cc1 (stereo unspecified) | inactive | – |
| COc1ccc2c(c1)CCc1c(C(=O)N3CCOCC3)noc1-2 | active: 16.4 µM | – |
| NC(=O)C1(c2ccccc2)CCCN1C(=O)c1ccc(Br)cc1 (stereo unspecified) | inconclusive: 29.1 µM [cytotoxic, partial curve, poor fit] | – |
| O=C(Nc1ccccc1)Nc1cccc(Cl)c1Cl | inconclusive: 20.6 µM [cytotoxic, single point] | – |

20 entries from above, ordered by molecular weight, rising.

| SMILES | Potency | activity change, negative = cytotoxicity |
| --- | --- | --- |
| CN(c1ccccc1)c1ncccn1 | inactive | – |
| c1ccc2c(c1)Cc1cc3ccccc3nc1-2 | inactive | – |
| COc1ccc2[nH]c3c(c2c1)CCC/C3=N\N | inconclusive: 23.1 µM [cytotoxic, single point] | – |
| CCCN1C2=NS(=O)(=O)CCN2c2ccccc21 | inconclusive: 18.4 µM [rising, partial curve] | – |
| C(=C1c2ccccc2Oc2ccccc21)c1ccccc1 | inconclusive: 7.31 µM [rising, partial curve, poor fit] | – |
| O=C(Nc1ccccc1)Nc1cccc(Cl)c1Cl | inconclusive: 20.6 µM [cytotoxic, single point] | – |
| COc1ccc(C(=O)c2oc3nc(C)cc(C)c3c2N)cc1 | inconclusive: 14.6 µM [cytotoxic, partial curve, poor fit] | – |
| NC(=O)c1sc2nc3c(c(-c4ccco4)c2c1N)CCC3 | inconclusive: 20.6 µM [cytotoxic, partial curve, poor fit] | – |
| N#C/C(=C(/O)CN1CCCC1)c1nc(-c2ccccc2)cs1 | inactive | – |
| O=C(Nc1nc(-c2ccccn2)cs1)C1COc2ccccc2O1 (stereo unspecified) | inactive | – |
| NS(=O)(=O)c1ccc(NC(=S)NCc2cccc(Cl)c2)cc1 | inconclusive: 16.4 µM [cytotoxic, single point] | – |
| CCOc1ccc(NC(=O)CN2C(=O)CC(C)Sc3ccccc32)cc1 (stereo unspecified) | inactive | – |
| CC(C)Cn1cc(C(=O)NCc2cccs2)c2c3ccccc3n(C)c2c1=O | inconclusive: 5.8 µM [cytotoxic, full curve] | – |
| COc1cccc(-c2oc3c(c2C(=O)OCCN2CCCCC2)C(O)CCC3)c1 (stereo unspecified) | inconclusive: 10.3 µM [cytotoxic, partial curve] | – |
| COc1ccc(-c2cn[nH]c2-c2ccc(OCc3ccccc3)cc2O)cc1OC | inconclusive: 8.2 µM [cytotoxic, partial curve, poor fit] | – |
| O=C(C1CCCN(S(=O)(=O)c2ccc(F)cc2)C1)N(Cc1cccs1)C1CC1 (stereo unspecified) | inactive | – |
| CCOC(=O)N1CCC(NC(=O)c2ccc(CS(=O)c3cccc(Cl)c3)o2)CC1 (stereo unspecified) | inactive | – |
| COc1ccc2nc(Nc3nc(CSc4nc5ccccc5[nH]4)cc(=O)[nH]3)nc(C)c2c1 | inconclusive: 18.4 µM [cytotoxic, single point] | – |
| COc1ccc(CCN2C(=O)c3ccccc3C2c2nnnn2Cc2ccccc2)cc1OC (stereo unspecified) | inconclusive: 7.31 µM [cytotoxic, partial curve] | – |
| COc1cc(C(C(=O)NCc2ccccc2)N(Cc2ccco2)C(=O)c2cnccn2)cc(OC)c1OC (stereo unspecified) | inconclusive: 29.1 µM [rising, partial curve, poor fit] | – |

The results go on:

| SMILES | Potency | activity change, negative = cytotoxicity |
| --- | --- | --- |
| CN(Cc1ccc(F)cc1)C(=O)c1cc(COc2ccc(-n3cncn3)cc2)on1 | inconclusive: 29.1 µM [cytotoxic, single point] | – |
| Cc1cc(N2CCC(C(=O)Nc3ccc(F)cc3)CC2)nc(-c2ccccc2)n1 | inactive | – |
| CCCOc1cccc(C(=O)Nc2cccc(-c3nc4ncccc4o3)c2C)c1 | inconclusive: 8.2 µM [cytotoxic, partial curve] | – |
| CCOC(=O)c1ccccc1NC(=O)COc1coc(CN2CCc3ccccc32)cc1=O | inconclusive: 16.4 µM [cytotoxic, single point] | – |
| Cc1cccc(-c2cc3nc(-c4ccccc4)cc(=O)n3[nH]2)c1 | inconclusive: 32.6 µM [cytotoxic, single point] | – |
| O=C1NC(=S)NC(=O)C1=Cc1ccccc1C(=O)O | inactive | – |
| CCCNc1nc(C)cc(-c2cc(-c3ccccc3)on2)n1 | inactive | – |
| CC1CCCCC12NC(=O)N(CC(=O)Nc1ccc3[nH]c(=O)[nH]c3c1)C2=O (stereo unspecified) | inactive | – |
| O=C(O)c1cccc(Nc2nc(-c3cc4ccccc4oc3=O)cs2)c1 | inconclusive: 23.1 µM [rising, single point] | – |
| COc1cccc(Nc2ccc3cc(S(=O)(=O)N4CCC(C)CC4)ccc3n2)c1 | inconclusive: 18.4 µM [cytotoxic, single point] | – |
| COc1ccc(-c2oc3c(c2C(=O)OCCCO)C(OCCCCCO)CCC3)cc1 (stereo unspecified) | inconclusive: 20.6 µM [cytotoxic, single point] | – |
| Cc1c(C(=O)N(C)Cc2ccc(F)cc2)sc(=O)n1Cc1ccc(Cl)c(Cl)c1 | inconclusive: 23.1 µM [cytotoxic, partial curve] | – |
| Cc1cc(C)cc(N(C(=O)C2CCCC2)C2C=CS(=O)(=O)C2)c1 (stereo unspecified) | inconclusive: 20.6 µM [cytotoxic, single point] | – |
| CN(C(=O)C1CCN(c2ncnc3c2nc2n3CCCCC2)CC1)C1CCCCC1 | inconclusive: 18.4 µM [cytotoxic, single point] | – |
| CCOC(=O)c1ccc2nc(C)c(CCC(C)=O)c(Cl)c2c1 | inactive | – |
| CSc1cccc(NC(=O)CC2Oc3ccccc3NC2=O)c1 (stereo unspecified) | inconclusive: 1.84 µM [rising, partial curve, poor fit] | – |
| O=C(Nc1ccc(Nc2ccccc2)cc1)c1ccc(Cl)cc1[N+](=O)[O-] | inconclusive: 0.206 µM [rising, full curve] | – |
| CC1CCN(S(=O)(=O)c2cccc(C(=O)Nc3nncs3)c2)CC1 | inconclusive: 20.6 µM [cytotoxic, single point] | – |
| Cc1ccccc1-c1nc2scc(CCNS(=O)(=O)c3ccccc3)n2n1 | inactive | – |
| COc1cc(/C=C(/C#N)c2ccc(F)cc2)ccc1OCc1ccc(C(=O)O)o1 | inactive | – |
| O=C(CSCc1c(Cl)cccc1Cl)Nc1cccnc1 | inconclusive: 8.2 µM [cytotoxic, partial curve] | – |
| Cc1ccc(-c2noc(CN(C(=O)Cc3ccccc3)C(C)C)n2)cc1 | active: 23.1 µM | – |
| O=C(O)c1ccc2nc3c(nc2c1)-c1ccccc1C3=O | inconclusive: 13 µM [cytotoxic, partial curve, poor fit] | – |

— PubChem BioAssay AID1347076 (National Center for Advancing Translational Sciences (NCATS), 2019)
